Results published in publication PMC8750186.

B1: RB1 (protein, UniProt P06400 1-928)
chain: MPPKTPRKTAATAAAAAAEPPAPPPPPPPEEDPEQDSGPEDLPLVRLEFEETEEPDFTALCQKLKIPDHVRERAWLTWEKVSSVDGVLGGYIQKKKELWGICIFIAAVDLDEMSFTFTELQKNIEISVHKFFNLLKEIDTSTKVDNAMSRLLKKYDVLFALFSKLERTCELIYLTQPSSSISTEINSALVLKVSWITFLLAKGEVLQMEDDLVISFQLMLCVLDYFIKLSPPMLLKEPYKTAVIPINGSPRTPRRGQNRSARIAKQLENDTRIIEVLCKEHECNIDEVKNVYFKNFIPFMNSLGLVTSNGLPEVENLSKRYEEIYLKNKDLDARLFLDHDKTLQTDSIDSFETQRTPRKSNLDEEVNVIPPHTPVRTVMNTIQQLMMILNSASDQPSENLISYFNNCTVNPKESILKRVKDIGYIFKEKFAKAVGQGCVEIGSQRYKLGVRLYYRVMESMLKSEEERLSIQNFSKLLNDNIFHMSLLACALEVVMATYSRSTSQNLDSGTDLSFPWILNVLNLKAFDFYKVIESFIKAEGNLTREMIKHLERCEHRIMESLAWLSDSPLFDLIKQSKDREGPTDHLESACPLNLPLQNNHTAADMYLSPVRSPKKKGSTTRVNSTANAETQATSAFQTQKPLKSTSLSLFYKKVYRLAYLRLNTLCERLLSEHPELEHIIWTLFQHTLQNEYELMRDRHLDQIMMCSMYGICKVKNIDLKFKIIVTAYKDLPHAVQETFKRVLIKEEEYDSIIVFYNSVFMQRLKTNILQYASTRPPTLSPIPHIPRSPYKFPSSPLRIPGGNIYISPLKSPYKISEGLPTPTKMTPRSRILVSIGESFGTSEKFQKINQMVCNSDRVLKRSAEGSNPPKPLKKLRFDIEGSDEADGSKHLPGESKFQQKLAEMTSTRTRMQKQKMNDSMDTSNKEEK
B2: TFDP2 (protein, UniProt Q14188 1-446)
chain: MTAKNVGLTSTNAEVRGFIDQNLSPTKGNISFVAFPVSNTNSPTKILPKTLGPINVNVGPQMIISTPQRLTSSGSVLIGSPYTPAPAMVTQTHIAEATGWVPGDRKRARKFIDSDFSESKRSKKGDKNGKGLRHFSMKVCEKVQRKGTTSYNEVADELVSEFTNSNNHLAADSAYDQKNIRRRVYDALNVLMAMNIISKEKKEIKWIGLPTNSAQECQNLEIEKQRRIERIKQKRAQLQELLLQQIAFKNLVQRNRQNEQQNQGPPALNSTIQLPFIIINTSRKTVIDCSISSDKFEYLFNFDNTFEIHDDIEVLKRMGMSFGLESGKCSLEDLKLAKSLVPKALEGYITDISTGPSWLNQGLLLNSTQSVSNLDLTTGATLPQSSVNQGLCLDAEVALATGQFLAPNSHQSSSAASHCSESRGETPCSFNDEDEEDDEEDSSSPE
B3: Fibulin3, Q12805 18-493 (protein)
chain: QDTEETITYTQCTDGYEWDPVRQQCKDIDECDIVPDACKGGMKCVNHYGGYLCLPKTAQIIVNNEQPQQETQPAEGTSGATTGVVAASSMATSGVLPGGGFVASAAAVAGPEMQTGRNNFVIRRNPADPQRIPSNPSHRIQCAAGYEQSEHNVCQDIDECTAGTHNCRADQVCINLRGSFACQCPPGYQKRGEQCVDIDECTIPPYCHQRCVNTPGSFYCQCSPGFQLAANNYTCVDINECDASNQCAQQCYNILGSFICQCNQGYELSSDRLNCEDIDECRTSSYLCQYQCVNEPGKFSCMCPQGYQVVRSRTCQDINECETTNECREDEMCWNYHGGFRCYPRNPCQDPYILTPENRCVCPVSNAMCRELPQSIVYKYMSIRSDRSVPSDIFQIQATTIYANTINTFRIKSGNENGEFYLRQTSPVSAMLVLVKSLSGPREHIVDLEMLTVSSIGTFRTSSVLRLTIIVGPFSF

Key:
[1] = biological target: complement factor H (FH) (human (endogenous in hTERT-RPE1)) (UniProt P08603); test: affinity purification with mass spectrometry; hTERT-RPE1 lysates (0.5% NP40, TBS, after 48 h in serum free medium) with anti-FH antibody clone C18/3 or control IgG, 1 h 4 °C, Protein G PLUS-Agarose overnight 4 °C, acidic elution, tryptic digest, LC-MS/MS; enrichment over IgG control, FDR < 0.05
[2] = biological target: T1, complement factor H (FH) (human (endogenous in hTERT-RPE1)), P08603; test: as above; conditions: remark: other sources report otherwise
T1 chain: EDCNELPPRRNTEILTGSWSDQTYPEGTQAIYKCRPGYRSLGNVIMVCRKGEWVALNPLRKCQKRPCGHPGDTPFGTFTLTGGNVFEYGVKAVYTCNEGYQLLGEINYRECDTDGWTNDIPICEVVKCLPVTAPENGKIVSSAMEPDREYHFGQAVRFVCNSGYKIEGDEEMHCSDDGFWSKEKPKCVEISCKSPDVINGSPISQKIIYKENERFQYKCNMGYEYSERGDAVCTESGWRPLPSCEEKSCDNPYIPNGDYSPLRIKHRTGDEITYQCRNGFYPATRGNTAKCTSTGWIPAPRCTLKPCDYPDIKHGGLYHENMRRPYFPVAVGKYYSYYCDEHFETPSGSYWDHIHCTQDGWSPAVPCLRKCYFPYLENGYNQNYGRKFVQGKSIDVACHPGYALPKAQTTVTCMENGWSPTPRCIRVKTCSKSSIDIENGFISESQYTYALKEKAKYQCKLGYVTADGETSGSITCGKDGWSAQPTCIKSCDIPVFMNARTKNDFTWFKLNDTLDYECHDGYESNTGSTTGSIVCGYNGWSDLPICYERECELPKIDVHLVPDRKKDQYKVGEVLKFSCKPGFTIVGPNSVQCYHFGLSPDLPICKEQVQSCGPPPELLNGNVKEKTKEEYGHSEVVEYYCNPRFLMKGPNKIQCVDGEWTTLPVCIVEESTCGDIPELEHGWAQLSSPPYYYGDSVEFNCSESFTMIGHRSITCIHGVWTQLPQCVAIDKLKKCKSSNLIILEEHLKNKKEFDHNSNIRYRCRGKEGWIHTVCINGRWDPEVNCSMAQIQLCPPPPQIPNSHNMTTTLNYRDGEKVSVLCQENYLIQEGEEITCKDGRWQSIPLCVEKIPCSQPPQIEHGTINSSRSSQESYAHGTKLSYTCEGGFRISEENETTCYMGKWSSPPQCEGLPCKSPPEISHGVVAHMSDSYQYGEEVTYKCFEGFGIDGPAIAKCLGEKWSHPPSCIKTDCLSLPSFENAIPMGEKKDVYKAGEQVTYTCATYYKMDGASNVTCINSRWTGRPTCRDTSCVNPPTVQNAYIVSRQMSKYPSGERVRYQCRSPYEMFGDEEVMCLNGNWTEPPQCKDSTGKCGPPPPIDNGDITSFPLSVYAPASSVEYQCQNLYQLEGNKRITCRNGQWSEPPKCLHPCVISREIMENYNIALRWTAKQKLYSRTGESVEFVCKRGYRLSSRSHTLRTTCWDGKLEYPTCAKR

| Binder | binding [1] | binding [2] |
| --- | --- | --- |
| B1 | binds | – |
| B2 | binds | – |
| B3 | – | no binding |

No constants are given. Whether binding was seen depends on the method and setting. In cells and extracts the contact can be indirect. Here binding means that the protein was enriched with, or labelled near, the bait; the list need not be complete. For part of these data: No binding means not detected with the bait.
